The values below are quoted from earlier work in article PMC411066 (BMC Medicine, 2004).

SMILES strings stand for the structures.

Data set [1] has as its system P-gp. The settings on record: cited from earlier work.
The test system of data set [2] is P-gp. The conditions noted are these: cited from earlier work. The source holds these as a separate data set.

`CC(C)c1c(C(=O)Nc2ccccc2)c(-c2ccccc2)c(-c2ccc(F)cc2)n1CC[C@@H](O)C[C@@H](O)CC(=O)O` [atorvastatin]: the “In vitro P-gp inhibition” value in data set [1] was “in vitro P-gp inhibitor”. Also, the “In vivo effects on P-gp” value in data set [2] is given as “demonstrates in vivo effects on P-gp”.
